In the M2OR odorant receptor database:
Some of the results follow. The calls were merged from several studies; some rest on single wells.

Key:
Conditions in all cases: stereoisomer not certain
[1] = system: T1, O52I2
T1 sequence (whole entry): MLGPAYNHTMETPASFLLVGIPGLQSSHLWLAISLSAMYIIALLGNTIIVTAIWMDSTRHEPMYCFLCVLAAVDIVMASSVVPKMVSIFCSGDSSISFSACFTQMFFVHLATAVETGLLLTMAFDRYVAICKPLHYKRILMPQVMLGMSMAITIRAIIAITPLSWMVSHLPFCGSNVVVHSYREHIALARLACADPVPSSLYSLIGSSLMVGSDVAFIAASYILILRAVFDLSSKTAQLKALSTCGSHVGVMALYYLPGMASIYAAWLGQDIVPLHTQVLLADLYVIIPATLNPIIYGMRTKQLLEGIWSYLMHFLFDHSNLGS
Outline: (§1)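 Each entry records the cell line, G-protein, co-transfected protein and tags used. Methods varied with the source, often transient luciferase assays in mammalian cell lines. A receptor–molecule pair is called responsive (active) if the original authors judged its signal statistically different from baseline and non-responsive (inactive) otherwise.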

[2] = system: T2, O52J3
T2 sequence (whole entry): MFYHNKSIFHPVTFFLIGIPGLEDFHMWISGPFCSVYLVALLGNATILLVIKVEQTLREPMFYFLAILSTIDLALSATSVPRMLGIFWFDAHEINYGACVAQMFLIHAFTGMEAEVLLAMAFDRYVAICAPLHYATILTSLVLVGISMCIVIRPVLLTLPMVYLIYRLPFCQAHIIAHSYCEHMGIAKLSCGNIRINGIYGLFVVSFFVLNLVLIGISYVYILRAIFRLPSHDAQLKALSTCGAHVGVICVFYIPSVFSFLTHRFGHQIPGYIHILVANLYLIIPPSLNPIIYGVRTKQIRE
Outline: as §1

[3] = system: T3, O52L1
T3 sequence (whole entry): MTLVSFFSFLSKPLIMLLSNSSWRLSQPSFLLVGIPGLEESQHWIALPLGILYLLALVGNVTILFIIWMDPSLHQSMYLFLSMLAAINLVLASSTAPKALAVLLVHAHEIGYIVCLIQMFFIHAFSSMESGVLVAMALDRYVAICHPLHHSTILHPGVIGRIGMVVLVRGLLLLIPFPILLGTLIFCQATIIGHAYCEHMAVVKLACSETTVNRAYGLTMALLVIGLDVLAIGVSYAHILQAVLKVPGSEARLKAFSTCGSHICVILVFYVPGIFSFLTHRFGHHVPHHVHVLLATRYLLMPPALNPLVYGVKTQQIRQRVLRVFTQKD
Outline: as §1

[4] = system: T4, O52L2
T4 sequence (whole entry): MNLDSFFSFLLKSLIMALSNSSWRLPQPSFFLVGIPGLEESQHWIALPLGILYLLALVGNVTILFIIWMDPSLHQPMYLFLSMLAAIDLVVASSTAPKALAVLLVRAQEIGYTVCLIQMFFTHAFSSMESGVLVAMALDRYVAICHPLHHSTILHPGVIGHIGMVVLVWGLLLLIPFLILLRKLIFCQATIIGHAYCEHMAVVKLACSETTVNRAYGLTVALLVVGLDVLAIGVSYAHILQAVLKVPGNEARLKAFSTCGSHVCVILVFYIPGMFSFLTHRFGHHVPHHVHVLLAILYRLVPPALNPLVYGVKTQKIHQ
Outline: as §1

[5] = system: T5, O52M1
T5 sequence (whole entry): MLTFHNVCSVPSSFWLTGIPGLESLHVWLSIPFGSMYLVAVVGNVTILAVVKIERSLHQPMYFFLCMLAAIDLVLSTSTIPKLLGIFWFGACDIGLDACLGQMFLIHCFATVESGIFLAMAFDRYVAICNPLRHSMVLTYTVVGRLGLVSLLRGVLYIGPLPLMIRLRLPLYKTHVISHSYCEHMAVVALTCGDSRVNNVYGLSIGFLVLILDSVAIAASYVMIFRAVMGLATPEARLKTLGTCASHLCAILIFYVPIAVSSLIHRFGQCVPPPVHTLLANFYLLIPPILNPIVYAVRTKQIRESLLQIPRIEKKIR
Outline: as §1

[6] = system: T6, O52N1
T6 sequence (whole entry): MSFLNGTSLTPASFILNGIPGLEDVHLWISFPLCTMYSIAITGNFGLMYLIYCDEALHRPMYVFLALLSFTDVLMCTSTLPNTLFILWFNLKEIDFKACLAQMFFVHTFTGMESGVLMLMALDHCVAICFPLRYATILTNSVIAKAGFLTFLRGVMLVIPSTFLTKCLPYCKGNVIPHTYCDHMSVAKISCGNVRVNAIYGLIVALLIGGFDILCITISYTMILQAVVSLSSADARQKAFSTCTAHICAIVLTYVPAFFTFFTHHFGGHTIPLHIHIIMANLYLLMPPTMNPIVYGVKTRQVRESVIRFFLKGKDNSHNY
Outline: as §1

[7] = system: T7, O52N2
T7 sequence (whole entry): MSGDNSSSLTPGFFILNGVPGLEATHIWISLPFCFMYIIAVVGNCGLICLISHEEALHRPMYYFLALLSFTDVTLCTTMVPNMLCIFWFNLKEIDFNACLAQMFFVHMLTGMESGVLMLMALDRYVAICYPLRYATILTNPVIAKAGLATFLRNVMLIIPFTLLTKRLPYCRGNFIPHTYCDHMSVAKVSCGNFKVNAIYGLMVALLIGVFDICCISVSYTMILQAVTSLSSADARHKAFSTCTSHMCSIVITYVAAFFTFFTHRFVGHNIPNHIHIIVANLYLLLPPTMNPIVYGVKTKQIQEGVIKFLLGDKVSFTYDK
Outline: as §1

[8] = system: T8, O52N4
T8 sequence (whole entry): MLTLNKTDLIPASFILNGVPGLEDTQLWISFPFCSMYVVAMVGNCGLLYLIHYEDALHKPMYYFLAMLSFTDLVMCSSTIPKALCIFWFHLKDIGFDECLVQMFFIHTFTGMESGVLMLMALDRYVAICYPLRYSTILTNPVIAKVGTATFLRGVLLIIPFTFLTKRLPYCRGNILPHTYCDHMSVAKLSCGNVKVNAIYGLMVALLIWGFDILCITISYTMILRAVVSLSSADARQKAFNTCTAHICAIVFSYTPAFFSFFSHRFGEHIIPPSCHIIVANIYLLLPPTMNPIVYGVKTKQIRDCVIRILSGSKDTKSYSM
Outline: as §1

[9] = system: T9, O52P1
T9 sequence (whole entry): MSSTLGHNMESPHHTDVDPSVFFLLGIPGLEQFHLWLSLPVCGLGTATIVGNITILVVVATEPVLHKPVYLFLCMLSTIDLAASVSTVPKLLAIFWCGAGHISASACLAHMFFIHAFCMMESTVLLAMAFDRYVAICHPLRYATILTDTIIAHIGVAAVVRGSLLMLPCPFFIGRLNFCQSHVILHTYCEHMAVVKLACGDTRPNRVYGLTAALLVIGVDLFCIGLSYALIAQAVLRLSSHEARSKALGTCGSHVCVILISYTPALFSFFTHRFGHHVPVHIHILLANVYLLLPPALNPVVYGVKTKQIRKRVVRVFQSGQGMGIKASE
Outline: as §1

Structure (SMILES): CCCCCCCCCCC=O
- odorant receptor agonist call [1]: inactive
- odorant receptor agonist call [2]: inactive
- odorant receptor agonist call [3]: inactive
- odorant receptor agonist call [4]: inactive
- odorant receptor agonist call [5]: inactive
- odorant receptor agonist call [6]: inactive
- odorant receptor agonist call [7]: inactive
- odorant receptor agonist call [8]: inactive
- odorant receptor agonist call [9]: inactive

Structure (SMILES): COc1ccccc1O
- odorant receptor agonist call [1]: inactive
- odorant receptor agonist call [2]: inactive
- odorant receptor agonist call [3]: inactive
- odorant receptor agonist call [4]: inactive
- odorant receptor agonist call [5]: inactive
- odorant receptor agonist call [6]: inactive
- odorant receptor agonist call [7]: inactive
- odorant receptor agonist call [8]: inactive
- odorant receptor agonist call [9]: inactive

Structure (SMILES): CC12C=CCC1C1CCC3CC(=O)CCC3(C)C1CC2 (stereo not drawn)
- odorant receptor agonist call [1]: inactive
- odorant receptor agonist call [2]: inactive
- odorant receptor agonist call [3]: inactive
- odorant receptor agonist call [4]: inactive
- odorant receptor agonist call [5]: active
- odorant receptor agonist call [6]: active
- odorant receptor agonist call [7]: inactive
- odorant receptor agonist call [8]: inactive
- odorant receptor agonist call [9]: active

Structure (SMILES): CCCCO
- odorant receptor agonist call [1]: inactive
- odorant receptor agonist call [2]: inactive
- odorant receptor agonist call [3]: inactive
- odorant receptor agonist call [4]: inactive
- odorant receptor agonist call [5]: inactive
- odorant receptor agonist call [6]: inactive
- odorant receptor agonist call [7]: inactive
- odorant receptor agonist call [8]: inactive
- odorant receptor agonist call [9]: inactive

Structure (SMILES): O=C1CCCCCCCCCCCCCCO1
- odorant receptor agonist call [1]: inactive
- odorant receptor agonist call [2]: inactive
- odorant receptor agonist call [3]: inactive
- odorant receptor agonist call [4]: inactive
- odorant receptor agonist call [5]: inactive
- odorant receptor agonist call [6]: inactive
- odorant receptor agonist call [7]: inactive
- odorant receptor agonist call [8]: inactive
- odorant receptor agonist call [9]: inactive

Structure (SMILES): CC(C)(O)CCCC1=CCC(C=O)CC1 (stereo not drawn)
- odorant receptor agonist call [7]: inactive
- odorant receptor agonist call [8]: inactive

Structure (SMILES): C=C(C)C1CCC2=CC(=O)CC(C)C2(C)C1 (stereo not drawn)
- odorant receptor agonist call [7]: inactive
- odorant receptor agonist call [8]: active

Structure (SMILES): CC12CCC(CC1)C(C)(C)O2
- odorant receptor agonist call [1]: inactive
- odorant receptor agonist call [2]: inactive
- odorant receptor agonist call [3]: inactive
- odorant receptor agonist call [4]: inactive
- odorant receptor agonist call [5]: inactive
- odorant receptor agonist call [6]: inactive
- odorant receptor agonist call [7]: inactive
- odorant receptor agonist call [8]: inactive
- odorant receptor agonist call [9]: inactive

Structure (SMILES): COc1cc(C=O)ccc1O
- odorant receptor agonist call [1]: inactive
- odorant receptor agonist call [2]: inactive
- odorant receptor agonist call [3]: inactive
- odorant receptor agonist call [4]: inactive
- odorant receptor agonist call [5]: inactive
- odorant receptor agonist call [6]: inactive
- odorant receptor agonist call [7]: inactive
- odorant receptor agonist call [8]: inactive
- odorant receptor agonist call [9]: inactive

Structure (SMILES): CC(C)=CCCC(C)=CC=O
- odorant receptor agonist call [1]: inactive
- odorant receptor agonist call [2]: inactive
- odorant receptor agonist call [3]: inactive
- odorant receptor agonist call [4]: inactive
- odorant receptor agonist call [5]: inactive
- odorant receptor agonist call [6]: inactive
- odorant receptor agonist call [7]: inactive
- odorant receptor agonist call [8]: active
- odorant receptor agonist call [9]: inactive

Structure (SMILES): CC(=O)OC1CC2CCC1(C)C2(C)C (stereo not drawn)
- odorant receptor agonist call [1]: inactive
- odorant receptor agonist call [2]: inactive
- odorant receptor agonist call [3]: inactive
- odorant receptor agonist call [4]: inactive
- odorant receptor agonist call [5]: inactive
- odorant receptor agonist call [6]: inactive
- odorant receptor agonist call [7]: inactive
- odorant receptor agonist call [8]: inactive
- odorant receptor agonist call [9]: inactive

Structure (SMILES): CCC1(O)C2(C)CCC(C2)C1(C)C (stereo not drawn)
- odorant receptor agonist call [1]: inactive
- odorant receptor agonist call [2]: inactive
- odorant receptor agonist call [3]: inactive
- odorant receptor agonist call [4]: inactive
- odorant receptor agonist call [5]: inactive
- odorant receptor agonist call [6]: inactive
- odorant receptor agonist call [7]: inactive
- odorant receptor agonist call [8]: inactive
- odorant receptor agonist call [9]: inactive

Structure (SMILES): c1cnccn1
- odorant receptor agonist call [1]: inactive
- odorant receptor agonist call [2]: inactive
- odorant receptor agonist call [3]: inactive
- odorant receptor agonist call [4]: inactive
- odorant receptor agonist call [5]: inactive
- odorant receptor agonist call [6]: inactive
- odorant receptor agonist call [7]: inactive
- odorant receptor agonist call [8]: inactive
- odorant receptor agonist call [9]: inactive
